Measurements reported in PubChem BioAssay AID1671195 (Yale University, 2021)
Screen: 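Knockdowns that increase or decrease uptake of fluorescent LDL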 (primary screen). System: human Huh7 hepatoma cells. Knock-down reagent: siRNA pool against human genes, 18 nM. Time to read-out: about 2 to 2.5 days of knockdown, then 8 h LDL uptake. Treatment: DiI-labelled LDL at 30 µg/ml for 8 h, in lipoprotein-deficient serum medium. Read-out: 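Per-cell DiI-LDL intensity by automated imaging; well means scaled to the plate median and given as a robust z-score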. Scale: robust z-score: higher = more LDL uptake after knockdown. Rule for the call: 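a gene counts as active if at least two replicate z-scores exceed ±2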.
Shown is one part, drawn at random, of about 22,000 deposited reagents. Of all reagents, about 1,510 (6.9%) were called active. 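Active includes knockdowns raising or lowering LDL uptake; positive z-scores mean more uptake, negative mean less.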 Entries without a mark were called inactive.

gene,PubChem SID,"robust z-score, replicate 1","robust z-score, replicate 2","robust z-score, replicate 3"
EMP2P1 (EMP2 pseudogene 1),SID442891882,0.286,0.273,0.142
TAF1C,SID442885493,2.31,1.24,0.925
"CDON (cell adhesion associated, oncogene regulated)",SID442886240,2.1,0.78,0.778
TIMM8A (translocase of inner mitochondrial membrane 8A),SID442887485,0.775,0.706,1.23
ETNK2 (ethanolamine kinase 2),SID442895346,0.13,0.133,-0.746
USP49 (ubiquitin specific peptidase 49),SID442903439,-1.16,-1.5,-1.23
NKX1-2 (NK1 homeobox 2),SID442897452,-0.453,-0.393,-0.317
SMIM19 (small integral membrane protein 19),SID442893386,0.422,-0.169,-0.0805
LOC344165 (retired record),SID442903033,-1.18,-1.17,-1.25
CLIC5 (CLIC family member 5),SID442887675,1.09,0.291,1.22
COL13A1 (collagen type XIII alpha 1 chain),SID442894699,0.139,0.0211,-0.434
LOC105378085,SID442904100,-0.555,-2.06,-1.86
HM13 (histocompatibility minor 13),SID442900317,-0.782,-0.738,-0.714
COMTD1 (catechol-O-methyltransferase domain containing 1),SID442898876,-0.791,-0.81,-0.0448
PCDHB1 (protocadherin beta 1),SID442902567,-1.26,-0.93,-1.13
ZNF638 (zinc finger protein 638),SID442893929,0.117,-0.153,0.0201
"SPTA1 (spectrin alpha, erythrocytic 1)",SID442904146,-1.41,-2.17,-0.954
STAP2 (signal transducing adaptor family member 2),SID442890529,0.736,-0.397,0.875
"DPM3 (dolichyl-phosphate mannosyltransferase subunit 3, regulatory)",SID442904096,-1.27,-1.99,-1.22
MACO1 (macoilin 1),SID442896941,-0.293,-0.381,-0.312
DHX33 (DEAH-box helicase 33),SID442893465,-0.183,-0.349,0.672
VTN (vitronectin),SID442898385,0.0283,-0.957,-0.549
AS3MT (arsenite methyltransferase),SID442902718,-0.866,-1.37,-1.17
CYP11B1 (cytochrome P450 family 11 subfamily B member 1),SID442888373,0.932,0.869,0.395
PECAM1 (platelet and endothelial cell adhesion molecule 1),SID442898338,0.00424,-1.03,-0.432
NPNT (nephronectin),SID442892470,0.196,0.238,0.0548
RPL18P9 (ribosomal protein L18 pseudogene 9),SID442895462,-0.411,-0.245,0.142
CDSN (corneodesmosin),SID442886518,0.667,-0.228,2.98
EMC3 (ER membrane protein complex subunit 3),SID442902121,-0.29,-2.18,-0.571
LOC139263 (retired record),SID442888003,-0.0354,1.25,1.18
INKA1 (inka box actin regulator 1),SID442894818,0.394,-0.35,-0.354
GPI (glucose-6-phosphate isomerase),SID442883385,2.96 (active),3.62,2.61
SNX2 (sorting nexin 2),SID442899006,-0.371,-0.714,-0.614
CD79A (CD79a molecule),SID442897972,-0.839,-0.732,0.233
ARX (aristaless related homeobox),SID442884246,0.543 (active),-2.18,-2.2
TYROBP (transmembrane immune signaling adaptor TYROBP),SID442891206,1.24,0.259,-0.545
THOC6 (THO complex subunit 6),SID442883374,3.34 (active),3.46,2.49
ATAD2B (ATPase family AAA domain containing 2B),SID442901919,-1.91,-0.917,-0.119
MASTL (microtubule associated serine/threonine kinase like),SID442893363,-0.241,0.864,-0.443
CENPN (centromere protein N),SID442897521,0.061,-1.44,0.191
LOC440255 (retired record),SID442897907,-0.271,-0.558,-0.484
FXYD4 (FXYD domain containing ion transport regulator 4),SID442894961,0.19,-0.675,0.131

The list goes on, starting with the last 6 of the part before.
gene,PubChem SID,"robust z-score, replicate 1","robust z-score, replicate 2","robust z-score, replicate 3"
THOC6 (THO complex subunit 6),SID442883374,3.34 (active),3.46,2.49
ATAD2B (ATPase family AAA domain containing 2B),SID442901919,-1.91,-0.917,-0.119
MASTL (microtubule associated serine/threonine kinase like),SID442893363,-0.241,0.864,-0.443
CENPN (centromere protein N),SID442897521,0.061,-1.44,0.191
LOC440255 (retired record),SID442897907,-0.271,-0.558,-0.484
FXYD4 (FXYD domain containing ion transport regulator 4),SID442894961,0.19,-0.675,0.131
INTU (inturned planar cell polarity protein),SID442884080,1.72 (active),2.29,2
FRMPD4 (FERM and PDZ domain containing 4),SID442901796,-0.586,-1.29,-1.01
CTNNAL1 (catenin alpha like 1),SID442890561,-0.229,0.933,0.496
ADAMTS6 (ADAM metallopeptidase with thrombospondin type 1 motif 6),SID442903043,-1.07,-1.32,-1.22
ESF1 (ESF1 nucleolar pre-rRNA processing protein),SID442885205,1.46,0.955,2.45
CSGALNACT2P1 (CSGALNACT2 pseudogene 1),SID442889012,0.342,0.798,0.735
CYP4A11 (cytochrome P450 family 4 subfamily A member 11),SID442883747,2.5 (active),2.67,1.95
LZTS1 (leucine zipper tumor suppressor 1),SID442894824,0.684,-1.07,0.0693
CDK5RAP3 (CDK5 regulatory subunit associated protein 3),SID442884457,-2.08 (active),-2.13,-2.26
IMPA1 (inositol monophosphatase 1),SID442892143,0.332,0.0543,0.223
KCNAB1,SID442892332,0.182,0.637,-0.278
PODNL1 (podocan like 1),SID442885361,1.49,1.32,1.82
OCLN (occludin),SID442893659,-0.00124,-0.0384,0.113
LOC389447 (retired record),SID442895845,-0.0102,-0.197,-0.429
LOC400541,SID442890223,0.00489,0.105,1.23
"ARHGEF34P (Rho guanine nucleotide exchange factor 34, pseudogene)",SID442889386,1.23,-0.0198,0.489
ATP5PD (ATP synthase peripheral stalk subunit d),SID442900028,-0.631,-1.58,0.108
SLC39A1,SID442891648,0.0696,0.0778,0.633
TRNAU1AP (tRNA selenocysteine 1 associated protein 1),SID442890085,-0.316,1.29,0.419
NSD2 (nuclear receptor binding SET domain protein 2),SID442901726,-1.12,-0.559,-1.16
APOL3 (apolipoprotein L3),SID442888408,0.178,1.05,0.948
LOC389819 (retired record),SID442904078,-1.17,-1.3,-1.99
RPUSD4 (RNA pseudouridine synthase D4),SID442898380,-0.508,-0.488,-0.48
DHRS3 (dehydrogenase/reductase 3),SID442887210,1.25,0.874,0.755
PUS7 (pseudouridine synthase 7),SID442888193,1.06,0.19,1.05
ZFP57 (ZFP57 zinc finger protein),SID442902120,-1.12,-1.07,-0.852
C1QL4 (complement C1q like 4),SID442903781,-1.44,-1.39,-1.33
FANCM (FA complementation group M),SID442887840,0.629,1.07,0.791
SLC2A3,SID442894813,-0.0679,-0.5,0.26
MRPS9 (mitochondrial ribosomal protein S9),SID442899045,-0.37,-0.738,-0.603
LOC401128 (retired record),SID442889159,0.674,0.558,0.578
DDX54 (DEAD-box helicase 54),SID442895052,-0.312,0.117,-0.191
OR4P4 (olfactory receptor family 4 subfamily P member 4),SID442897923,-0.258,-0.295,-0.767
AP1G1 (adaptor related protein complex 1 subunit gamma 1),SID442891930,0.299,-0.277,0.664
"PPP3R2 (protein phosphatase 3 regulatory subunit B, beta)",SID442896847,0.0194,-1.03,0.0518
ASNSD1 (asparagine synthetase domain containing 1),SID442896177,-0.228,-0.422,-0.0872
DNAL1 (dynein axonemal light chain 1),SID442900908,-0.47,-0.713,-1.29
ATG9B (autophagy related 9B),SID442903991,-1.3,-1.51,-1.56
RPS21 (ribosomal protein S21),SID442903829,-1.93,-0.776,-1.5
CDCA7L (cell division cycle associated 7 like),SID442901206,-1.41,0.197,-1.39
CD1D (CD1d molecule),SID442895424,0.355,-1.2,0.344
SYT5 (synaptotagmin 5),SID442891959,0.207,0.122,0.346
CA3 (carbonic anhydrase 3),SID442887715,0.578,1.11,0.879
CLRN1 (clarin 1),SID442894234,-0.479,1.08,-0.728
"PROZ (protein Z, vitamin K dependent plasma glycoprotein)",SID442902537,-1.01,-1.38,-0.911
